Test results from US7288256B1, “T cell epitopes of the major allergens from dermatophagoides (house dust mite)” (Merck Patent GmbH, priority 1991, dated 2007).
Not every detail of the peptide structures is certain; ends, links or a residue may be inferred. Some compounds share one wording; it may come from a single statement. Some of these results come from one statement about several compounds together. Residues, ends and D or L forms follow the SMILES beside them.

Test system: Der p I primed T cell lines
Assay: Secondary T cell proliferation assay, T cell lines primed in vitro with Der p I (Examples V, VII, XI, XII)
Format: cell-based, human
Details: for positivity index (mean S.I. x percent of positive responses): 33 patients primed with Der p I; for mean T cell stimulation index (mean S.I.) of positive responses: 33 patients primed with native or recombinant Der p I, only S.I. >= 2 used; for response of Der p I primed T cells to selected Der p I peptides: 33 positive experiments, FIG. 13; for S.I. with which this patient responds: individual 543, primed with 20 μg/ml purified native Der p I, data not shown; for response of Der p I primed T cells to selected Der f I peptides: 30 positive experiments, FIG. 15a; for response of Der p I primed T cells to Der f I peptides (cross-reactivity): 14 positive experiments, FIG. 7

Compound: CC[C@H](C)[C@H](NC(=O)[C@H](C)NC(=O)[C@H](CO)NC(=O)[C@H](Cc1c[nH]cn1)NC(=O)[C@@H](NC(=O)[C@H](CCC(N)=O)NC(=O)[C@H](C)NC(=O)[C@H](CC(C)C)NC(=O)[C@H](C)NC(=O)[C@H](CCC(=O)O)NC(=O)[C@H](CCCNC(=N)N)NC(=O)[C@@H](NC(=O)[C@H](CCCCN)NC(=O)[C@H](CC(N)=O)NC(=O)[C@H](C)NC(=O)[C@H](CC(N)=O)NC(=O)[C@@H]1CCCN1C(=O)[C@@H]1CCCN1C(=O)[C@H](Cc1ccc(O)cc1)NC(=O)[C@@H](NC(=O)[C@@H](N)CCC(N)=O)[C@@H](C)CC)[C@@H](C)CC)[C@@H](C)O)C(=O)N[C@@H](C)C(=O)O [DP I-25.2] (H-QIYPPNANKIREALAQTHSAIA-OH; N-terminus and C-terminus assumed)
- positivity index (mean S.I. x percent of positive responses): at least 150
- mean T cell stimulation index (mean S.I.) of positive responses: at least 4
- response of Der p I primed T cells to selected Der p I peptides: respond significantly

Compound: CC(C)[C@H](NC(=O)CNC(=O)[C@H](CC(N)=O)NC(=O)[C@@H](N)Cc1c[nH]cn1)C(=O)N[C@H](C(=O)N[C@@H](CCC(N)=O)C(=O)N[C@@H](CCC(=O)O)C(=O)N[C@@H](CO)C(=O)N[C@@H](Cc1ccc(O)cc1)C(=O)N[C@@H](Cc1ccc(O)cc1)C(=O)N[C@@H](CCCNC(=N)N)C(=O)N[C@@H](Cc1ccc(O)cc1)C(=O)N[C@H](C(=O)N[C@@H](C)C(=O)N[C@@H](CCCNC(=N)N)C(=O)N[C@@H](CCC(=O)O)C(=O)N[C@@H](CCC(N)=O)C(=O)N[C@@H](CO)C(=O)N[C@@H](CS)C(=O)N[C@@H](CCCNC(=N)N)C(=O)N[C@@H](CCCNC(=N)N)C(=O)N1CCC[C@H]1C(=O)N[C@@H](CC(N)=O)C(=O)N[C@@H](C)C(=O)N[C@@H](CCC(N)=O)C(=O)O)C(C)C)C(C)C [DP I-13] (H-HNGVVQESYYRYVAREQSCRRPNAQ-OH; N-terminus and C-terminus assumed)
- S.I. with which this patient responds: at least 2.0

Compound: CC[C@H](C)[C@H](NC(=O)[C@H](Cc1ccc(O)cc1)NC(=O)[C@@H](N)CCC(=O)O)C(=O)N[C@@H](CCC(N)=O)C(=O)N[C@@H](CCC(N)=O)C(=O)N[C@@H](CC(N)=O)C(=O)NCC(=O)N[C@H](C(=O)N[C@H](C(=O)N[C@@H](CCC(=O)O)C(=O)N[C@@H](CCC(=O)O)C(=O)N[C@@H](CCCNC(=N)N)C(=O)N[C@@H](CO)C(=O)N[C@@H](Cc1ccc(O)cc1)C(=O)N1CCC[C@H]1C(=O)N[C@@H](Cc1ccc(O)cc1)C(=O)N[C@H](C(=O)N[C@@H](C)C(=O)N[C@@H](CCCNC(=N)N)C(=O)N[C@@H](CCC(=O)O)C(=O)N[C@@H](CCC(N)=O)C(=O)N[C@@H](CCCNC(=N)N)C(=O)N[C@@H](CS)C(=O)N[C@@H](CCCNC(=N)N)C(=O)N[C@@H](CCCNC(=N)N)C(=O)N1CCC[C@H]1C(=O)N[C@@H](CC(N)=O)C(=O)N[C@@H](CO)C(=O)N[C@@H](CCC(N)=O)C(=O)O)C(C)C)C(C)C)C(C)C [DF I-23.1] (H-EYIQQNGVVEERSYPYVAREQRCRRPNSQ-OH; N-terminus and C-terminus assumed)
- response of Der p I primed T cells to selected Der f I peptides: respond significantly

Compound: CC[C@H](C)[C@H](NC(=O)[C@H](CCCNC(=N)N)NC(=O)[C@H](CS)NC(=O)[C@H](C)NC(=O)[C@H](CO)NC(=O)[C@@H](N)[C@@H](C)O)C(=O)N[C@@H](CC(N)=O)C(=O)N[C@@H](CO)C(=O)N[C@H](C(=O)N[C@@H](CC(N)=O)C(=O)N[C@H](C(=O)N1CCC[C@H]1C(=O)N[C@@H](CO)C(=O)N[C@@H](CCC(=O)O)C(=O)N[C@@H](CC(C)C)C(=O)N[C@@H](CC(=O)O)C(=O)N[C@@H](CC(C)C)C(=O)N[C@@H](CCCNC(=N)N)C(=O)N[C@@H](CO)C(=O)N[C@@H](CC(C)C)C(=O)N[C@@H](CCCNC(=N)N)C(=O)N[C@H](C(=O)N[C@H](C(=O)N[C@H](C(=O)N1CCC[C@H]1C(=O)N[C@H](C(=O)N[C@@H](CCCNC(=N)N)C(=O)N[C@@H](CCSC)C(=O)N[C@@H](CCC(N)=O)C(=O)O)[C@@H](C)CC)[C@@H](C)O)C(C)C)[C@@H](C)O)C(C)C)C(C)C [DF I-21.1] (H-TSACRINSVNVPSELDLRSLRTVTPIRMQ-OH; N-terminus and C-terminus assumed)
- response of Der p I primed T cells to selected Der f I peptides: respond significantly

Compound: DP I-11: original Der p I peptide with conservative changes from native sequence, SEQ ID NO: 117 (HRNQSLDLAEQDLVDCASQHGC)
- S.I. with which this patient responds: at least 2.0

Compound: CC[C@H](C)[C@H](NC(=O)CNC(=O)[C@@H](NC(=O)[C@@H](NC(=O)[C@@H](NC(=O)[C@H](C)NC(=O)[C@@H](NC(=O)[C@H](C)NC(=O)[C@@H](NC(=O)[C@H](Cc1c[nH]cn1)NC(=O)[C@@H](NC(=O)[C@H](CCC(N)=O)NC(=O)[C@@H](NC(=O)[C@H](CC(C)C)NC(=O)[C@H](C)NC(=O)[C@H](CCC(=O)O)NC(=O)[C@H](CCCNC(=N)N)NC(=O)[C@@H](NC(=O)[C@H](CCC(N)=O)NC(=O)[C@H](CCCCN)NC(=O)[C@@H](NC(=O)[C@H](CC(=O)O)NC(=O)[C@@H]1CCCN1C(=O)[C@@H]1CCCN1C(=O)[C@H](Cc1ccc(O)cc1)NC(=O)[C@@H](NC(=O)[C@@H](N)CCC(N)=O)[C@@H](C)CC)C(C)C)[C@@H](C)CC)[C@@H](C)O)[C@@H](C)O)[C@@H](C)O)[C@@H](C)CC)C(C)C)[C@@H](C)CC)[C@@H](C)CC)C(=O)N[C@@H](CCCCN)C(=O)N[C@@H](CC(=O)O)C(=O)O [DF I-25.1] (H-QIYPPDVKQIREALTQTHTAIAVIIGIKD-OH; N-terminus and C-terminus assumed)
- response of Der p I primed T cells to selected Der f I peptides: respond significantly

Compound: CC[C@H](C)[C@H](NC(=O)[C@@H](NC(=O)[C@H](CCCNC(=N)N)NC(=O)CNC(=O)[C@@H](N)CC(=O)O)[C@@H](C)O)C(=O)N[C@H](C(=O)N[C@@H](CCC(N)=O)C(=O)N[C@@H](Cc1c[nH]cn1)C(=O)N[C@@H](CC(=O)O)C(=O)N[C@@H](CC(N)=O)C(=O)NCC(=O)N[C@@H](Cc1ccc(O)cc1)C(=O)N[C@@H](CCC(N)=O)C(=O)N1CCC[C@H]1C(=O)N[C@@H](CC(N)=O)C(=O)O)[C@@H](C)CC [DF I-8] (H-DGRTIIQHDNGYQPN-OH; N-terminus and C-terminus assumed)
- response of Der p I primed T cells to Der f I peptides (cross-reactivity): respond significantly

Compound: CC[C@H](C)[C@H](NC(=O)[C@@H](N)CCCNC(=N)N)C(=O)N[C@@H](CC(N)=O)C(=O)N[C@@H](CO)C(=O)N[C@H](C(=O)N[C@@H](CC(N)=O)C(=O)N[C@H](C(=O)N1CCC[C@H]1C(=O)N[C@@H](CO)C(=O)N[C@@H](CCC(=O)O)C(=O)N[C@@H](CC(C)C)C(=O)N[C@@H](CC(=O)O)C(=O)N[C@@H](CC(C)C)C(=O)N[C@@H](CCCNC(=N)N)C(=O)N[C@@H](CO)C(=O)N[C@@H](CC(C)C)C(=O)N[C@@H](CCCNC(=N)N)C(=O)N[C@H](C(=O)N[C@H](C(=O)N[C@H](C(=O)N1CCC[C@H]1C(=O)N[C@H](C(=O)N[C@@H](CCCNC(=N)N)C(=O)N[C@@H](CCSC)C(=O)N[C@@H](CCC(N)=O)C(=O)O)[C@@H](C)CC)[C@@H](C)O)C(C)C)[C@@H](C)O)C(C)C)C(C)C [DF I-21.2] (H-RINSVNVPSELDLRSLRTVTPIRMQ-OH; N-terminus and C-terminus assumed)
- response of Der p I primed T cells to selected Der f I peptides: respond significantly

Compound: CC(C)C[C@H](NC(=O)[C@H](Cc1ccc(O)cc1)NC(=O)[C@H](C)NC(=O)[C@H](CO)NC(=O)[C@H](CCC(=O)O)NC(=O)[C@@H](NC(=O)[C@H](C)NC(=O)[C@H](C)NC(=O)[C@@H](NC(=O)CNC(=O)[C@H](CO)NC(=O)[C@H](Cc1ccccc1)NC(=O)[C@H](C)N)C(C)C)[C@@H](C)O)C(=O)N[C@@H](C)C(=O)N[C@@H](Cc1c[nH]cn1)C(=O)N[C@@H](CCCNC(=N)N)C(=O)N[C@@H](CC(N)=O)C(=O)N[C@@H](CCC(N)=O)C(=O)N[C@@H](CO)C(=O)N[C@@H](CC(C)C)C(=O)N[C@@H](CC(=O)O)C(=O)N[C@@H](CC(C)C)C(=O)N[C@@H](C)C(=O)N[C@@H](CCC(=O)O)C(=O)N[C@@H](CCC(N)=O)C(=O)N[C@@H](CCC(=O)O)C(=O)N[C@@H](CC(C)C)C(=O)N[C@H](C(=O)N[C@@H](CC(=O)O)C(=O)O)C(C)C [DP I-22.1] (H-AFSGVAATESAYLAHRNQSLDLAEQELVD-OH; N-terminus and C-terminus assumed)
- response of Der p I primed T cells to selected Der p I peptides: respond significantly

Compound: CC[C@H](C)[C@H](NC(=O)CNC(=O)[C@H](CCCNC(=N)N)NC(=O)[C@@H]1CCCN1C(=O)[C@@H](NC(=O)[C@@H](NC(=O)[C@H](CC(=O)O)NC(=O)CNC(=O)[C@H](Cc1c[nH]cn1)NC(=O)[C@H](CS)NC(=O)CNC(=O)[C@H](Cc1c[nH]cn1)NC(=O)[C@H](CCC(N)=O)NC(=O)[C@H](CO)NC(=O)[C@H](C)NC(=O)[C@H](CS)NC(=O)[C@H](CC(=O)O)NC(=O)[C@@H](NC(=O)[C@H](CC(C)C)NC(=O)[C@@H](N)CCC(=O)O)C(C)C)[C@@H](C)O)[C@@H](C)CC)C(=O)N[C@@H](CCC(=O)O)C(=O)O [DF I-12] (H-ELVDCASQHGCHGDTIPRGIE-OH; N-terminus and C-terminus assumed)
- response of Der p I primed T cells to Der f I peptides (cross-reactivity): respond significantly

Compound: CC[C@H](C)[C@H](NC(=O)CNC(=O)[C@H](CCCNC(=N)N)NC(=O)[C@@H]1CCCN1C(=O)[C@@H](NC(=O)[C@@H](NC(=O)[C@@H](N)CC(=O)O)[C@@H](C)O)[C@@H](C)CC)C(=O)N[C@@H](CCC(=O)O)C(=O)N[C@@H](Cc1ccc(O)cc1)C(=O)N[C@H](C(=O)N[C@@H](CCC(N)=O)C(=O)N[C@@H](Cc1c[nH]cn1)C(=O)N[C@@H](CC(N)=O)C(=O)NCC(=O)N[C@H](C(=O)N[C@H](C(=O)N[C@@H](CCC(N)=O)C(=O)N[C@@H](CCC(=O)O)C(=O)N[C@@H](CO)C(=O)N[C@@H](Cc1ccc(O)cc1)C(=O)N[C@@H](Cc1ccc(O)cc1)C(=O)N[C@@H](CCCNC(=N)N)C(=O)N[C@@H](Cc1ccc(O)cc1)C(=O)N[C@H](C(=O)N[C@@H](C)C(=O)N[C@@H](CCCNC(=N)N)C(=O)N[C@@H](CCC(=O)O)C(=O)N[C@@H](CCC(N)=O)C(=O)N[C@@H](CO)C(=O)O)C(C)C)C(C)C)C(C)C)[C@@H](C)CC [DP I-23.2] (H-DTIPRGIEYIQHNGVVQESYYRYVAREQS-OH; N-terminus and C-terminus assumed)
- positivity index (mean S.I. x percent of positive responses): at least 150
- mean T cell stimulation index (mean S.I.) of positive responses: at least 4
- response of Der p I primed T cells to selected Der p I peptides: respond significantly
